These are yes or no findings as the source states them, for the method shown. Binding seen in cells or lysates may run through a third protein. Some results given as binding are weak or reduced against the parent protein; the word gives no strength.
Tests used:
[1] = biological target: T1, ubiquitin-specific protease 15 (USP15) (human (endogenous in MV4-11 and Kasumi-1)) (UniProt Q9Y4E8); experiment: co-IP; endogenous USP15 or endogenous FUS immunoprecipitated (protein A Dynabeads, overnight 4°C) from 0.1% Igepal lysates (150 mM NaCl, 20 mM Tris pH 7.5, 0.5 mM EDTA) of MV4-11 and Kasumi-1 cells, untreated or MMC-treated; immunoblot; IgG control
T1 sequence: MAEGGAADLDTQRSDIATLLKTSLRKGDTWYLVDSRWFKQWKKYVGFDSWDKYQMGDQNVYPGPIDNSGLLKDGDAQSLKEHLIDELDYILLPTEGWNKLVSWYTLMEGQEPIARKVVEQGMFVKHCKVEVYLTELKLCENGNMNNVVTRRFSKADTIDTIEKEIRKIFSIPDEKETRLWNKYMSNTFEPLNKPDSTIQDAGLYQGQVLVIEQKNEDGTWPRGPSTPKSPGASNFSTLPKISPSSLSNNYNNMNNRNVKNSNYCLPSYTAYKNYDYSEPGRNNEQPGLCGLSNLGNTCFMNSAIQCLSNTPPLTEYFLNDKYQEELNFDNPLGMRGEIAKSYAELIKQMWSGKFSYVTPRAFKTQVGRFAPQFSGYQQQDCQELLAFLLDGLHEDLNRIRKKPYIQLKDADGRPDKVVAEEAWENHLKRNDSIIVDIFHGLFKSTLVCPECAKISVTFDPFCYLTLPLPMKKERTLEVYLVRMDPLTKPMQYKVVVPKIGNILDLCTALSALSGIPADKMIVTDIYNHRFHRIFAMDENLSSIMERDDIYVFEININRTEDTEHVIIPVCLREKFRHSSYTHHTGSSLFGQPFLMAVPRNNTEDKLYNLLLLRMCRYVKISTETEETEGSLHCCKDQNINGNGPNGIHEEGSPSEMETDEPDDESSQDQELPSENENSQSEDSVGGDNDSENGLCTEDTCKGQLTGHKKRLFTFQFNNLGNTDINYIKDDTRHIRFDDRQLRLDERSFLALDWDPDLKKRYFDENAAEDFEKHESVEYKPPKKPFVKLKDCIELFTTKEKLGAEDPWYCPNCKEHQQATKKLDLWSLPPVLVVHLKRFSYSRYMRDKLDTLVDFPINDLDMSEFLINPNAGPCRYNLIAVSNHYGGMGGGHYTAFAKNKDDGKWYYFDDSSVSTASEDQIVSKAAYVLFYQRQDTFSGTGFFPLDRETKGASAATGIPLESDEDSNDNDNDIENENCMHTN

Amino acid sequences for entries named in this document (tags omitted).
UniProt P35637: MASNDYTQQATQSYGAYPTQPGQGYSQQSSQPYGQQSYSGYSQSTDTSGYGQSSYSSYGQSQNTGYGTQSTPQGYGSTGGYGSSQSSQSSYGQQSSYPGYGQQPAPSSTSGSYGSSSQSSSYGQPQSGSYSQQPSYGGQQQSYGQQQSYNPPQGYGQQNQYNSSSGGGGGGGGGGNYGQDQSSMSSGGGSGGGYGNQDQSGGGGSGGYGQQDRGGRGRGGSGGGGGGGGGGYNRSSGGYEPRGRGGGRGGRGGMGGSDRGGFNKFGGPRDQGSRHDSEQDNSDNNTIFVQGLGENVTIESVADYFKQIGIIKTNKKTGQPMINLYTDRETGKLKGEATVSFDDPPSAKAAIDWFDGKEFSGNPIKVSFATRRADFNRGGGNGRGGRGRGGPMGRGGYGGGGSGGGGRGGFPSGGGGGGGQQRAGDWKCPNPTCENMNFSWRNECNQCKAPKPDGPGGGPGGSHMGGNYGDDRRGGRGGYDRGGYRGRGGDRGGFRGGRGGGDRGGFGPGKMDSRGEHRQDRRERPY

[2] = biological target: FUS (fused in sarcoma) (human (endogenous in MV4-11 and Kasumi-1)) (UniProt P35637); experiment: as above

## FUS (fused in sarcoma) (from UniProt P35637 1-526)
[1]
  binding: binds

B1: ubiquitin-specific protease 15 (USP15) (enzyme, UniProt Q9Y4E8 1-981)
chain: T1 sequence
[2]
  binding: binds
